Experimental data from patent US11603380B2 (Centre national de la recherche scientifique, priority 2018, dated 2023).
For at least one compound, name, drawing or mass did not settle the structure.

System: HSV-1, HSV-2, HSV-1 (TK−), VV, FHV
Format: cell-based

Q: `CC(=O)OC/C(=C\CP(=O)(OCOC(=O)OC(C)C)OCOC(=O)OC(C)C)COc1cc(N)nc(N)n1` [Compound (6), [(Z)-4-[bis(isopropoxycarbonyloxymethoxy)phosphoryl]-2-[(2,6-diaminopyrimidin-4-yl)oxymethyl]but-2-enyl]acetate] was tested. Which “activity level against HSV-1, HSV-2, HSV-1 (TK−), VV, FHV” value did it give?
A: micromolar and sub-micromolar activities
